Laboratory results from the supplement of paper PMC7661543.
Differences between knockout arms are mostly noise.

Test system: SKBR3
Experiment: relative cell number vs DMSO control (72 h) (% of DMSO); higher = less growth inhibition (more cells)
Protocol: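 QMAP-Seq: a pool of 5 breast cancer cell lines (ZR-75-1, SKBR3, HCC-38, MDA-MB-231, BT-20), each carrying 12 doxycycline-inducible Cas9 sgRNA perturbations (11 knockouts plus non-targeting sgNT), was treated with compounds for 72 h at four 10-fold doses (10 nM-10 uM or 1 nM-1 uM range). Barcodes were amplified and sequenced, and cell number was interpolated from 293T spike-in standard curves. The result is expressed as % of the median of DMSO wells. Two biological replicates.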

CN1C(=O)C(Cc2c[nH]c3ccccc23)NC1=S (configuration not stated) [Necrostatin1]
Settings | relative cell number
sgRNA knockout: sgATF3, 10 nM | 90.8
sgRNA knockout: sgATF3, 100 nM | 85.2
sgRNA knockout: sgATF3, 1000 nM | 79.3
sgRNA knockout: sgATF3, 10000 nM | 75.8
sgRNA knockout: sgATF4, 10 nM | 91.45
sgRNA knockout: sgATF4, 100 nM | 75.2
sgRNA knockout: sgATF4, 1000 nM | 82.4
sgRNA knockout: sgATF4, 10000 nM | 77.7
sgRNA knockout: sgATF6, 10 nM | 96.8
sgRNA knockout: sgATF6, 100 nM | 86.2
sgRNA knockout: sgATF6, 1000 nM | 68.3
sgRNA knockout: sgATF6, 10000 nM | 85.5
sgRNA knockout: sgATG7, 10 nM | 92.6
sgRNA knockout: sgATG7, 100 nM | 73.1
sgRNA knockout: sgATG7, 1000 nM | 66
sgRNA knockout: sgATG7, 10000 nM | 76.9
sgRNA knockout: sgERN1, 10 nM | 88.4
sgRNA knockout: sgERN1, 100 nM | 68.9
sgRNA knockout: sgERN1, 1000 nM | 56.7
sgRNA knockout: sgERN1, 10000 nM | 78.1
sgRNA knockout: sgHSF1, 10 nM | 94
sgRNA knockout: sgHSF1, 100 nM | 98.2
sgRNA knockout: sgHSF1, 1000 nM | 79.7
sgRNA knockout: sgHSF1, 10000 nM | 90.1
sgRNA knockout: sgHSF2, 10 nM | 90.8
sgRNA knockout: sgHSF2, 100 nM | 81.3
sgRNA knockout: sgHSF2, 1000 nM | 80.4
sgRNA knockout: sgHSF2, 10000 nM | 77.5
sgRNA knockout: sgKEAP1, 10 nM | 85
sgRNA knockout: sgKEAP1, 100 nM | 75.4
sgRNA knockout: sgKEAP1, 1000 nM | 76
sgRNA knockout: sgKEAP1, 10000 nM | 83.4
sgRNA knockout: sgNFE2L2, 10 nM | 103
sgRNA knockout: sgNFE2L2, 100 nM | 77.5
sgRNA knockout: sgNFE2L2, 1000 nM | 71.2
sgRNA knockout: sgNFE2L2, 10000 nM | 74.3
sgRNA knockout: sgSLC35F2, 10 nM | 78.1
sgRNA knockout: sgSLC35F2, 100 nM | 68.8
sgRNA knockout: sgSLC35F2, 1000 nM | 64.5
sgRNA knockout: sgSLC35F2, 10000 nM | 58.8
sgRNA knockout: sgXBP1, 10 nM | 85.1
sgRNA knockout: sgXBP1, 100 nM | 94.5
sgRNA knockout: sgXBP1, 1000 nM | 75.3
sgRNA knockout: sgXBP1, 10000 nM | 69.4

COc1cccc2cc(-c3nc([C@H]4CC[C@H](C(=O)O)CC4)n4ncnc(N)c34)[nH]c12 [OSI027]
Settings | relative cell number
sgRNA knockout: sgATF3, 10 nM | 94.7
sgRNA knockout: sgATF3, 100 nM | 125
sgRNA knockout: sgATF3, 1000 nM | 68
sgRNA knockout: sgATF3, 10000 nM | 31.4
sgRNA knockout: sgATF4, 10 nM | 90.2
sgRNA knockout: sgATF4, 100 nM | 110
sgRNA knockout: sgATF4, 1000 nM | 60.2
sgRNA knockout: sgATF4, 10000 nM | 39.1
sgRNA knockout: sgATF6, 10 nM | 73.4
sgRNA knockout: sgATF6, 100 nM | 67.7
sgRNA knockout: sgATF6, 1000 nM | 55.9
sgRNA knockout: sgATF6, 10000 nM | 35.6
sgRNA knockout: sgATG7, 10 nM | 114
sgRNA knockout: sgATG7, 100 nM | 95.5
sgRNA knockout: sgATG7, 1000 nM | 47.4
sgRNA knockout: sgATG7, 10000 nM | 40.3
sgRNA knockout: sgERN1, 10 nM | 96
sgRNA knockout: sgERN1, 100 nM | 98
sgRNA knockout: sgERN1, 1000 nM | 63.9
sgRNA knockout: sgERN1, 10000 nM | 43.8
sgRNA knockout: sgHSF1, 10 nM | 94.4
sgRNA knockout: sgHSF1, 100 nM | 92.2
sgRNA knockout: sgHSF1, 1000 nM | 61.3
sgRNA knockout: sgHSF1, 10000 nM | 36.9
sgRNA knockout: sgHSF2, 10 nM | 79.1
sgRNA knockout: sgHSF2, 100 nM | 92.3
sgRNA knockout: sgHSF2, 1000 nM | 54.5
sgRNA knockout: sgHSF2, 10000 nM | 34.4
sgRNA knockout: sgKEAP1, 10 nM | 93.7
sgRNA knockout: sgKEAP1, 100 nM | 97.5
sgRNA knockout: sgKEAP1, 1000 nM | 55.4
sgRNA knockout: sgKEAP1, 10000 nM | 38.9
sgRNA knockout: sgNFE2L2, 10 nM | 91.3
sgRNA knockout: sgNFE2L2, 100 nM | 101
sgRNA knockout: sgNFE2L2, 1000 nM | 59.4
sgRNA knockout: sgNFE2L2, 10000 nM | 39.6
sgRNA knockout: sgSLC35F2, 10 nM | 81.3
sgRNA knockout: sgSLC35F2, 100 nM | 86.3
sgRNA knockout: sgSLC35F2, 1000 nM | 51.7
sgRNA knockout: sgSLC35F2, 10000 nM | 39.8
sgRNA knockout: sgXBP1, 10 nM | 79.6
sgRNA knockout: sgXBP1, 100 nM | 107
sgRNA knockout: sgXBP1, 1000 nM | 55.6
sgRNA knockout: sgXBP1, 10000 nM | 33.4

C=CCc1cccc(/C=N/NC(=O)CN2CCN(Cc3ccccc3)CC2)c1O [PAC1]
Settings | relative cell number
sgRNA knockout: sgATF3, 10 nM | 115
sgRNA knockout: sgATF3, 100 nM | 63.5
sgRNA knockout: sgATF3, 1000 nM | 88.2
sgRNA knockout: sgATF3, 10000 nM | 44.5
sgRNA knockout: sgATF4, 10 nM | 105
sgRNA knockout: sgATF4, 100 nM | 78.4
sgRNA knockout: sgATF4, 1000 nM | 71.8
sgRNA knockout: sgATF4, 10000 nM | 32.7
sgRNA knockout: sgATF6, 10 nM | 91
sgRNA knockout: sgATF6, 100 nM | 84.4
sgRNA knockout: sgATF6, 1000 nM | 96.7
sgRNA knockout: sgATF6, 10000 nM | 44.1
sgRNA knockout: sgATG7, 10 nM | 70.9
sgRNA knockout: sgATG7, 100 nM | 84.2
sgRNA knockout: sgATG7, 1000 nM | 89.7
sgRNA knockout: sgATG7, 10000 nM | 49.1
sgRNA knockout: sgERN1, 10 nM | 127
sgRNA knockout: sgERN1, 100 nM | 91.4
sgRNA knockout: sgERN1, 1000 nM | 91.1
sgRNA knockout: sgERN1, 10000 nM | 42.2
sgRNA knockout: sgHSF1, 10 nM | 85.4
sgRNA knockout: sgHSF1, 100 nM | 76
sgRNA knockout: sgHSF1, 1000 nM | 81.3
sgRNA knockout: sgHSF1, 10000 nM | 34.52
sgRNA knockout: sgHSF2, 10 nM | 107
sgRNA knockout: sgHSF2, 100 nM | 71.9
sgRNA knockout: sgHSF2, 1000 nM | 82.9
sgRNA knockout: sgHSF2, 10000 nM | 41.6
sgRNA knockout: sgKEAP1, 10 nM | 96
sgRNA knockout: sgKEAP1, 100 nM | 69.9
sgRNA knockout: sgKEAP1, 1000 nM | 71.4
sgRNA knockout: sgKEAP1, 10000 nM | 39.6
sgRNA knockout: sgNFE2L2, 10 nM | 95.5
sgRNA knockout: sgNFE2L2, 100 nM | 82.7
sgRNA knockout: sgNFE2L2, 1000 nM | 83.1
sgRNA knockout: sgNFE2L2, 10000 nM | 37.8
sgRNA knockout: sgSLC35F2, 10 nM | 98.8
sgRNA knockout: sgSLC35F2, 100 nM | 67.4
sgRNA knockout: sgSLC35F2, 1000 nM | 101
sgRNA knockout: sgSLC35F2, 10000 nM | 38.7
sgRNA knockout: sgXBP1, 10 nM | 115
sgRNA knockout: sgXBP1, 100 nM | 82.9
sgRNA knockout: sgXBP1, 1000 nM | 73.5
sgRNA knockout: sgXBP1, 10000 nM | 34.1
